Among the data in paper PMC7819943, “Rice protein-binding microarrays: a tool to detect cis-acting elements near promoter regions in rice” are binding signal values, retold here.

The other results are listed elsewhere or left out.

The target of the assay is T1, OsSMF1 (Oryza sativa, UniProt Q6ZLB0 1-436).
T1 sequence: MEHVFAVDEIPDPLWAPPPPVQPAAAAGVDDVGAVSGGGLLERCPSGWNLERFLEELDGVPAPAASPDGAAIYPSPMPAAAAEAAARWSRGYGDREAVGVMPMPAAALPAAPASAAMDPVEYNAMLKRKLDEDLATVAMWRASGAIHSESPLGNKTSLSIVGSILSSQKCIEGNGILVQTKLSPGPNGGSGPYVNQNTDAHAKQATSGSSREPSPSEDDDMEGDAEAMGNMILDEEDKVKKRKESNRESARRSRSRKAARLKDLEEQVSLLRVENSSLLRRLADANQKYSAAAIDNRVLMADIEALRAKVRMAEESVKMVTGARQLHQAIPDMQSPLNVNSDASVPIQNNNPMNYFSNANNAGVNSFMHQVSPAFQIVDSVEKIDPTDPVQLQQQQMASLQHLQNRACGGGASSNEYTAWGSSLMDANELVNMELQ
The assay can be described thus: protein-binding microarray (RPBM); PBS, 2% BSA, 51.3 ng/ul salmon testes DNA, 50 uM zinc acetate, 200 nM TF, 25 C, 1 h; high values mean tight binding. The following applies: protein: recombinant; tags: N-terminal polyhistidine and DsRed monomer fusion (pET32a); chain copies: 2; label: CyDye5-dUTP incorporated in the synthesized complementary strand; 3' TTTTT single-stranded linker to array surface; dsDNA, one strand shown. The essentials:
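Per-feature fluorescence intensity (arbitrary units), read on an Axon 4000B scanner, is the binding signal. Transcription factors carrying an N-terminal polyhistidine tag and DsRed fusion were expressed in E. coli BL21-CodonPlus and purified on Ni–NTA. A custom Agilent array, made double-stranded by primer extension with Cy5-dUTP and blocked with 2% BSA, was incubated with 200 nM protein in PBS, 2% BSA, salmon testes DNA and 50 µM zinc acetate at 25 °C for 1 h and then washed.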
As to “GAGGCAAAACTACTTATTCCATGACAACATCTTGGGCCATCGGAGTCACCTAGTGCAG”, the binding signal was 4200 fluorescence intensity (a.u.).

For the sequence “TCAACCGGATCAAGTAGGATATCCTTGTGAGTTGGCATCCCGGAGTCACCTAGTGCAG”, the binding signal is 3700 fluorescence intensity (a.u.).

In the case of “ATGACTATAGATGGTACGTTGCTACATGCTACTACTTCTGCGGAGTCACCTAGTGCAG”, the binding signal was 36000 fluorescence intensity (a.u.).

Take “GGACCCCACGCTGACTCAGCTGCCACGTTGGATGAAACCGCGGAGTCACCTAGTGCAG”: the binding signal is 21800 fluorescence intensity (a.u.).

Turning to “GAACAGTGGTGGGCGCGGATGGCAGCACTGAGCGGCTCGGCGGAGTCACCTAGTGCAG”, the binding signal is 32000 fluorescence intensity (a.u.).

“CCAACACGTGTCGTCTGTTGCCACGTTAACATCGCCGCAACGGAGTCACCTAGTGCAG”: the binding signal was 7330 fluorescence intensity (a.u.).

On to “TAAAGTTTGATGAAATAGTCGCTCACGTGGCACGCGTGCACGGAGTCACCTAGTGCAG”, for which the binding signal is 9840 fluorescence intensity (a.u.).

On to “TTGTCGCATCTGAACGTGTCGAGTCACACCTGTCTGTTAGCGGAGTCACCTAGTGCAG”, for which the binding signal is 8880 fluorescence intensity (a.u.).

Consider “CCTTCGCCGAGCTCCCTATATATCGCCGTCGTCTCGCACTCGGAGTCACCTAGTGCAG”, for which the binding signal was 22700 fluorescence intensity (a.u.).

Regarding “TTCATAATTTGCTTCTTAGCATGACCAGTAATGCTGTAGACGGAGTCACCTAGTGCAG”, the binding signal was 3270 fluorescence intensity (a.u.).

“ACGGCCTGTGACGGCAGCCTCCTCATCACGGCAAGTCGGCCGGAGTCACCTAGTGCAG”: the binding signal is 4530 fluorescence intensity (a.u.).

Turning to “TATTTCAAATGTCAATAACAATAGCTGTGCGACACACGGTCGGAGTCACCTAGTGCAG”, the binding signal was 3450 fluorescence intensity (a.u.).

Regarding “CTCAGTATTGGGTTGGGTGGTGGTGGCGGCGGTGGCAGTGCGGAGTCACCTAGTGCAG”, the binding signal is 5300 fluorescence intensity (a.u.).

“GCAGGCAGCGAATGCCCCTCAGCACCCGTGCGCGATCCTGCGGAGTCACCTAGTGCAG”: the binding signal is 4000 fluorescence intensity (a.u.).

For “TGGTGGTGGTAGTGGTAGATCAAGAGCCAAGAAGTCCGGGCGGAGTCACCTAGTGCAG”, the binding signal was 3440 fluorescence intensity (a.u.).

For “AGAAGCCCTGTTTGCATTTTCCTACGTGGACGCCCTTGAGCGGAGTCACCTAGTGCAG”, the binding signal was 9510 fluorescence intensity (a.u.).

Consider “CGATCACTGATCACGACGATGACGACGAGACAAAGGGAAACGGAGTCACCTAGTGCAG”, for which the binding signal was 3830 fluorescence intensity (a.u.).

With “ATTGGCGCCGGCTGTGTACGACGCGTGGCCTCGACGTGGCCGGAGTCACCTAGTGCAG”, the binding signal was 6010 fluorescence intensity (a.u.).

On to “TAGTCCTTAATCATGACAACAGTGACATCACAAGCTAATACGGAGTCACCTAGTGCAG”, for which the binding signal was 3350 fluorescence intensity (a.u.).

Consider “ACCCAAAGCCACCCGCAACAACCGACGACGACGACGACCGCGGAGTCACCTAGTGCAG”, for which the binding signal is 24100 fluorescence intensity (a.u.).

Consider “ATTAACAATTCAATGGTTCTTGATGTGTTCTACTTAACCTCGGAGTCACCTAGTGCAG”, for which the binding signal is 3260 fluorescence intensity (a.u.).

Consider “GCGCGACCACGGCGTCGAGCCGACGCCGGACATCCTCGCCCGGAGTCACCTAGTGCAG”, for which the binding signal is 3220 fluorescence intensity (a.u.).

On to “GCCGCCTCACGACGCGAGCGCGCCACATGGACATCCACCACGGAGTCACCTAGTGCAG”, for which the binding signal was 3810 fluorescence intensity (a.u.).

As to “AATGTACATGTGGTACTGACCCGTGCGCACCGCCTCCCATCGGAGTCACCTAGTGCAG”, the binding signal was 3520 fluorescence intensity (a.u.).

As for “ACCTAGGCACGCAGACGCAGAGAAGAAACGTCCATTCCTGCGGAGTCACCTAGTGCAG”, the binding signal was 3420 fluorescence intensity (a.u.).

As for “GCCCTTGATTTCTGACTAGATTTGTGTTATTCTACTTACACGGAGTCACCTAGTGCAG”, the binding signal was 5060 fluorescence intensity (a.u.).

On to “AGCTTCCTCCTCCTTCCCTCCACGCGGACATGGTATAGCCCGGAGTCACCTAGTGCAG”, for which the binding signal was 3510 fluorescence intensity (a.u.).

Regarding “TTACCCGAGAGACGCCACCTCACCGCACCCCGTCTCACAGCGGAGTCACCTAGTGCAG”, the binding signal was 4810 fluorescence intensity (a.u.).

As to “AAGATTGTGGATGCGCAGAAGCCCGGGTTCGGGCGCAAGTCGGAGTCACCTAGTGCAG”, the binding signal is 19700 fluorescence intensity (a.u.).

As to “TGAGGGTCCTGAACGAGACGAGCGCCGTCTGGACGTGGCACGGAGTCACCTAGTGCAG”, the binding signal is 3310 fluorescence intensity (a.u.).

Regarding “GTGCGTTGTGTGGTTGGTTGGTCAGTGTCTGGGTGGTCACCGGAGTCACCTAGTGCAG”, the binding signal is 26000 fluorescence intensity (a.u.).

Regarding “CCCATTGTACGTACGGTGGACTCCCTGCGCGCGGTTTCTCCGGAGTCACCTAGTGCAG”, the binding signal is 3210 fluorescence intensity (a.u.).

Regarding “GTACTGTAGCACATATGACTAATCATGGATTAATTAGTCTCGGAGTCACCTAGTGCAG”, the binding signal is 3190 fluorescence intensity (a.u.).

Consider “AAGGGATTAATATGTCATGATGATGTTCAATTAAAGAAGTCGGAGTCACCTAGTGCAG”, for which the binding signal is 5510 fluorescence intensity (a.u.).

Consider “TTTATCCTCCGCTGTCACCGTGTCACCGCCAGTCCGCCAGCGGAGTCACCTAGTGCAG”, for which the binding signal was 7280 fluorescence intensity (a.u.).

For the sequence “TGCCAGCCGACGGATGGACTCAGTGATGGCGTCACAGGCGCGGAGTCACCTAGTGCAG”, the binding signal was 5380 fluorescence intensity (a.u.).

With “GATGGAGGTGGAGGAGATGGGGTTCCACATTTACAGTCACCGGAGTCACCTAGTGCAG”, the binding signal was 3220 fluorescence intensity (a.u.).

Consider “GCGCGCCACATCGTCCGCCACGCCGACGGTCAGCCTCCACCGGAGTCACCTAGTGCAG”, for which the binding signal is 8360 fluorescence intensity (a.u.).

Take “GTGTAACATCGATTACCCGTTCTCTCCTTTGCGGGATTTGCGGAGTCACCTAGTGCAG”: the binding signal is 3290 fluorescence intensity (a.u.).

Take “CATTTATATGTACCATGGATTGCATTGGTGCCAAGTATGTCGGAGTCACCTAGTGCAG”: the binding signal is 3550 fluorescence intensity (a.u.).

“CATAATATAGTATGCAACCACTGTCTGCCAACTACATGGCCGGAGTCACCTAGTGCAG”: the binding signal was 3250 fluorescence intensity (a.u.).

For “GTCCCTTCCCAACAAACAAACCCGCCACCACACGGCGCCCCGGAGTCACCTAGTGCAG”, the binding signal is 3390 fluorescence intensity (a.u.).
